From the supplement of paper PMC3334620
Over roughly 33,000 sequences, “E-score (-0.5 to 0.5)” has its median near -0.0014; the highest 2% begin near 0.25. The list shows a part of the results.

Target: T1, Cad1 (UniProt P24813)
T1 sequence: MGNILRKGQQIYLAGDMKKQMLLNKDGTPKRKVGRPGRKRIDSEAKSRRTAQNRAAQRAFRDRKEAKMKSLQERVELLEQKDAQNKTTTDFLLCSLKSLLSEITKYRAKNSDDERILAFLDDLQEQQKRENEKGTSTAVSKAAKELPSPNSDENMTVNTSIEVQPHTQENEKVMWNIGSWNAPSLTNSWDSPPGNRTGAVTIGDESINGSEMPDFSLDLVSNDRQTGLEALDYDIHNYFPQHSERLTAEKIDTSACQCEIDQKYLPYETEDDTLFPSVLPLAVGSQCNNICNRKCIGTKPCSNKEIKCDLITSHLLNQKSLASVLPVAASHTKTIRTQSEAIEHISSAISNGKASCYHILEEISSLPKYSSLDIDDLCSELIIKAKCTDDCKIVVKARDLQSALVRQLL
Test: PBM E-score (8-mer binding enrichment) (E-score (-0.5 to 0.5)); higher = stronger / more preferred TF binding
Details: protein concentration: 100 nM; construct: GST-full length
In short: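 E-scores (a modified Wilcoxon-Mann-Whitney statistic) were assigned by the Universal PBM Analysis Suite to every ungapped eight-base word pooled with its reverse complement. The input came from universal all-10-mer Agilent arrays made double-stranded by primer extension and probed with GST-tagged yeast transcription factors at about 100-200 nM. Fluorescent anti-GST detected bound protein, and masliner normalised the scans.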

Sequence | PBM E-score
CACCGTGA | -0.0822
ACCCGCAG | 0.016
AAACCTAC | 0.0716
ATGATCAC | 0.151
AGAAGTGA | 0.0136
ATCTTAGC | -0.0411
ACAAAAAT | 0.228
AACACCAT | 0.00258
GATAGCGC | 0.0821
AGATGGCC | -0.07
ACTACTCG | 0.00646
CCGAAGGC | -0.0842
ATAACGCG | 0.106
AACGCAAA | -0.00945
GCATTAAA | 0.103
CGGCGTAC | -0.16
CATGGAAC | -0.157
CTTCTAGC | -0.245
GGATGAAA | 0.195
CCACTGCC | -0.0615
CTCAAGAA | -0.141
TCATCTCA | 0.0213
CCGATGTC | -0.0199
CAGCTAAC | -0.0904
ACGCCAGG | -0.15

Sequence | PBM E-score
GGAATGCC | -0.234
AACTTACT | -0.0879
ACACTGGG | -0.121
ATATCTTA | 0.192
AAAGGGAG | -0.286
CTATTGTA | 0.072
ACCTAGGA | -0.0276
GCCGGCAA | 0.159
GAGTCACC | -0.207
CGCTTGTA | 0.00721
CATTGAAA | 0.231
CCCATGGA | 0.00891
ACCTGCAA | 0.0328
CAATTCTA | -0.164
ATACATGA | 0.0597
CGCCAAGA | -0.089
GCCGCTAA | 0.0878
AGCTGTAC | -0.0779
ATTCATGG | 0.0754
AGATGTGC | -0.0124
AAAACCAT | 0.034
TTATTGAA | 0.067
CGGTGGCA | -0.223
CGACCTTA | 0.0416
AAGTTCTA | 0.048

Sequence | PBM E-score
AATAGGTA | -0.0466
CCGCCTCC | -0.305
GCACCACA | 0.104
TAACGAGA | -0.136
AGCACCAG | -0.068
AAACAGAG | -0.068
ATACCTTG | -0.00469
ATAGGAAC | 0.0789
CCGGCCCG | -0.109
GGTATACA | 0.0215
AGGCATAT | -0.0322
GAGCCCTC | -0.242
GTGCTATA | 0.00304
CTTCAAGC | -0.0718
GGGTTCCA | -0.203
ACTGCAGG | -0.14
CGACCGTA | -0.231
ACGATTGA | 0.0475
CCACCCGA | 0.0445
CAGAGTTA | -0.0305
ATAATTTA | 0.236
ACGTCCAG | -0.101
AGAAGACT | -0.262
AGTGCGAA | -0.0323
CTAGCCAA | 0.0718

Sequence | PBM E-score
AATACTCT | 0.018
ATCCCTCA | -0.0774
CATTTGCG | -0.0692
GCTCATTA | 0.0873
ATTACGGC | 0.124
GTTGGAAA | -0.0664
TACGTTAA | 0.153
AGAATCTC | -0.122
CGTACCCA | -0.0278
AGTGTAGA | -0.0852
TAGATCTA | 0.17
ATATCAAA | 0.0329
AGCCGTTC | -0.215
CGCAAGCG | -0.133
GGTCGGAC | -0.0901
TACCCCTA | -0.0672
CAACACAC | 0.00373
AAGTCGTC | -0.147
CTGCATTC | 0.00506
AACTGGGA | -0.143
GCTACCCA | -0.112
AAAAAGGG | -0.147
AGGGAAAA | -0.125
AGAGGGTC | -0.32
GACAGAGC | -0.124

Sequence | PBM E-score
GGATACGA | -0.0996
ATAAGCCC | -0.223
ATGATAAA | 0.231
ATATACGG | -0.0995
CCCCAAAA | 0.0744
CATCTAGG | -0.273
CCTAATAA | 0.0868
CTTCGTAA | 0.0607
AAAACCCA | 0.229
GCTCGCAA | 0.0456
ACTGGGTG | -0.169
ACTCTTTC | -0.083
CCTTCTGA | -0.0904
ATCTAGAA | 0.124
CCTCAGGA | -0.0778
ACTCGATG | 0.15
CAGGCCTG | 0.0877
CGCAGGGA | -0.288
CTGCTAAG | -0.139
GAATAGAA | 0.136
AGACCGAA | 0.143
ACGTACGG | 0.0327
ACGCATGG | -0.215
GATATCGC | 0.124
AAGGCAGT | 0.0323

Some of the entries so far, in CSV form:
Sequence,PBM E-score
GGATACGA,-0.0996
ATAAGCCC,-0.223

(continued)

Sequence | PBM E-score
AAGGCATA | -0.0337
GTGGGTCA | -0.31
AAGCCGTA | 0.0223
ATACAAAG | 0.0741
ACTTACCG | 0.0895
CACCTGTA | -0.157
GGAGGCAC | -0.168
AACTCGCC | 0.012
ACTAGACC | 0.104
AATCATTC | 0.096
ATCGGTGC | -0.00786
ACACAACG | 0.0513
ATCGCTAA | 0.102
GCACACGA | 0.0365
CGAGGGCA | 0.0579
TCACTCGA | 0.04
CGAATAAA | 0.129
CGAGGCAA | 0.111
AGCCTTGA | -0.0232
AGGCACAG | -0.0832
ATCGGTAA | 0.147
CAGACACA | 0.0775
AGTTGCTA | 0.0842
CACGGGCG | -0.0141
CTAGGGTC | -0.236

Quoted from above for reference:
Sequence | PBM E-score
AAGGCATA | -0.0337
GTGGGTCA | -0.31

Additional entries follow:

Sequence | PBM E-score
GTCTCCTA | -0.194
CTGAGGCC | -0.0469
TGCTAGAA | -0.134
ACAAAGAA | 0.22
GAATAAGC | 0.0988
GATCGGAA | -0.0356
ATTAACTG | 0.129
GATAATGC | 0.0145
CGTGACGC | 0.202
CAAACCCC | -0.206
AATCAGCT | 0.274
AACAGCGT | 0.133
CACCCCAC | -0.0178
CGTTGTTA | 0.117
GAGGCGCC | 0.0825
CAACTACG | 0.0571
CGAGTACG | 0.00825
TAGGAAGA | -0.194
AGTGTTGG | 0.0709
AAATATCG | 0.151
CGCTGGGA | -0.221
ACCATCCT | 0.0167

Some of the entries above, set out differently.
Sequence,PBM E-score
GGTCGGAC,-0.0901
TACCCCTA,-0.0672
CAACACAC,0.00373
AAGTCGTC,-0.147
CTGCATTC,0.00506
AACTGGGA,-0.143
GCTACCCA,-0.112
